We go through two molecules from doi:10.1101/2025.03.30.646247.

By UniProt entry, the sequences of proteins in these tests, tags left out.
UniProt Q9FIJ0: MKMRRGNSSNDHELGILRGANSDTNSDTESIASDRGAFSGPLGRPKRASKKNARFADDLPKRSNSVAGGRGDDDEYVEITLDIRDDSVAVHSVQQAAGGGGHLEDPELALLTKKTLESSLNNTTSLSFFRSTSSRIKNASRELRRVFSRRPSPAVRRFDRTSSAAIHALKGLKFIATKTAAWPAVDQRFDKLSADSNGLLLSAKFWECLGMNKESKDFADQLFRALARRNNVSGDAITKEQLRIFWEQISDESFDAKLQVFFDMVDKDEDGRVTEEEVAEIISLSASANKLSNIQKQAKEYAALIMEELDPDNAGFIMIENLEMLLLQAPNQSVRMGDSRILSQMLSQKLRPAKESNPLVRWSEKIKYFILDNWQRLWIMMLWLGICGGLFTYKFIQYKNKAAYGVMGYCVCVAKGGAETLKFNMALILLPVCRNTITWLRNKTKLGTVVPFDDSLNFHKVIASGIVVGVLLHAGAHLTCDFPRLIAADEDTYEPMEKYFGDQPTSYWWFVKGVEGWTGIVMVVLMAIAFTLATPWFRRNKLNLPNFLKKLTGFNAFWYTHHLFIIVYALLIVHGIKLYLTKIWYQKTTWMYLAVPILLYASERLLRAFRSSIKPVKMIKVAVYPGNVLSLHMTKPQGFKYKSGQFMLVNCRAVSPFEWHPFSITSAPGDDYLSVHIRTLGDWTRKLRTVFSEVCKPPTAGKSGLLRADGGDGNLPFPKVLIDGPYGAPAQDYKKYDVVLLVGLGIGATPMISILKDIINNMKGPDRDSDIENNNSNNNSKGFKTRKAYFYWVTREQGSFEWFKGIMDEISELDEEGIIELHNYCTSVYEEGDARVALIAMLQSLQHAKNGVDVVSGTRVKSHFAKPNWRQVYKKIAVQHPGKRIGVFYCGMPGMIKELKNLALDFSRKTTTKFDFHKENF

The target in assay [1] is RbohD-YFP^C (Arabidopsis thaliana) (UniProt Q9FIJ0). Nature of the assay: split reporter.
In assay [2] the target is RbohD-YFP (Arabidopsis thaliana) (UniProt Q9FIJ0). Nature of the assay: co-IP.

Results are given in words; binding and its absence hold for the method and conditions named. In cells and extracts the contact can be indirect. Some entries that bind do so weakly or less than the wild type. Sequences can lack the tags named with a protein.

B1: CIPK6-YFP^N (enzyme, UniProt O65554 1-441)
chain: MVGAKPVENGSDGGSSTGLLHGRYELGRLLGHGTFAKVYHARNIQTGKSVAMKVVGKEKVVKVGMVDQIKREISVMRMVKHPNIVELHEVMASKSKIYFAMELVRGGELFAKVAKGRLREDVARVYFQQLISAVDFCHSRGVYHRDLKPENLLLDEEGNLKVTDFGLSAFTEHLKQDGLLHTTCGTPAYVAPEVILKKGYDGAKADLWSCGVILFVLLAGYLPFQDDNLVNMYRKIYRGDFKCPGWLSSDARRLVTKLLDPNPNTRITIEKVMDSPWFKKQATRSRNEPVAATITTTEEDVDFLVHKSKEETETLNAFHIIALSEGFDLSPLFEEKKKEEKREMRFATSRPASSVISSLEEAARVGNKFDVRKSESRVRIEGKQNGRKGKLAVEAEIFAVAPSFVVVEVKKDHGDTLEYNNFCSTALRPALKDIFWTSTPA
With B1, the binding result in assay [1] is recorded as “binds”.

B2: 10xcMyc-CIPK6 (enzyme, UniProt O65554 1-441)
chain: B1 chain
Regarding B2, the binding entry in assay [2] is on record as “binds”.
